# Reference: PubChem BioAssay AID268 (DTP/NCI, 2004)
# The list does not hold the whole screen: its compounds were picked by chemical class. Not every dose and run of a compound is shown. T/C gives the treated animals as a percentage of the vehicle group. Schedules are NCI's codes, read here as Q, the interval in days (D) or hours (H), X, the number of doses. Some entries hold several experiments; the values are given in rising order. Some T/C values are followed by the survivors on the day toxicity was checked; without a count or a note in brackets, all were alive then. Some doses have a count of surviving animals in place of a T/C: the source files T/C as zero there, which appears to mark a toxic dose or a test without result, not a measured value. Survivors were counted at the toxicity check; its day is shown where the source gives one, and later deaths do not show.
# System: CD2F1 mice, P1798 lymphosarcoma sc, tumor weight T/C
# Assay: NCI In Vivo Anticancer Drug Screen. Data for tumor model P1798 Lymphosarcoma (subcutaneous) in CD2F1 (CDF1) mice
# Conditions: T/C endpoint: mean tumor weight, schedule: Q01DX010 (ip), vehicle: saline, higher T/C = larger tumour
# Method: The antitumor activity of compounds was measured in mice bearing transplantable tumors. Survival or tumor size were measured and the results are expressed as the measurement made in the treated group (T) divided by the measurement made in the vehicle treated control group (C). The tumor model used in this assay is P1798 Lymphosarcoma (subcutaneous) in CD2F1 (CDF1) mice
smiles,measurement,setting,value
CN(N=O)C(=N)N[N+](=O)[O-],T/C,"dose: 8.0 mg/kg/injection, evaluated on day 12",90 and 103 % of control
same,T/C,"dose: 16.0 mg/kg/injection, evaluated on day 12",39 [5 of 6 alive] and 67 % of control
same,survivor count,dose: 32.0 mg/kg/injection,0 of 6 and 1 of 6
same,survivor count,dose: 64.0 mg/kg/injection,0 of 6
CC[C@H](C)[C@@H]1NC(=O)/C(=C(\C)O)C1=O,T/C,"dose: 15.6 mg/kg/injection, evaluated on day 12",87 % of control
same,T/C,"dose: 15.6 mg/kg/injection, run until all animals had died",114 % of control
same,T/C,"dose: 31.3 mg/kg/injection, evaluated on day 12",77 % of control
same,T/C,"dose: 31.3 mg/kg/injection, run until all animals had died",104 % of control
same,T/C,"dose: 62.5 mg/kg/injection, evaluated on day 12",96 % of control
same,T/C,"dose: 62.5 mg/kg/injection, run until all animals had died",120 % of control
same,survivor count,dose: 125.0 mg/kg/injection,0 of 6
same,T/C,"dose: 125.0 mg/kg/injection, run until all animals had died",128 % of control [5 of 6 alive]
NC1CCCCC1.O=P(O)(N(CCCl)CCCl)N1CC1,T/C,"dose: 1.25 mg/kg/injection, evaluated on day 12",73 % of control
same,T/C,"dose: 2.5 mg/kg/injection, evaluated on day 12",95 % of control
same,T/C,"dose: 5.0 mg/kg/injection, evaluated on day 12",63 % of control
same,T/C,"dose: 10.0 mg/kg/injection, evaluated on day 12",37 % of control
